Experimental data: PubChem BioAssay AID504764 (Drosophila RNAi Screening Center, 2011)
Assay: 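Genes whose knock-down alters Notch-dependent transcription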 (primary screen). Cell system: Drosophila Kc167 cells. Knock-down reagent: long dsRNA against Drosophila genes. Timing: about 5 days (4 days dsRNA, then 24 h after transfection). Conditions: transfection of constitutively active membrane-tethered Notch lacking the extracellular domain, read 24 h later. Detection: 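Light from a Notch-responsive E(spl)m3 luciferase reporter under active Notch, with control-promoter and no-Notch reporter wells to normalise; raw counts from paired wells a and b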. Reading the numbers: induced reporter light, run 1, well a and induced reporter light, run 1, well b: higher = more light from the Notch target reporter with active Notch; control promoter light, run 1, well a and control promoter light, run 1, well b: higher = more light from the viral control promoter (cell number, transfection, viability); uninduced reporter light, run 1, well a: higher = more light from the Notch target reporter without active Notch. Rule for the call: 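Hit if the duplicate-averaged log2 ratio of induced to control-promoter light gives a plate-wise z beyond ±2, or induced to uninduced beyond ±1.8; weak-control or discordant-duplicate wells dropped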. Calls: active = modifier hit (raised or lowered Notch signal); inactive = not a hit.
The deposit covers about 22,000 reagents; below is a random part of those that have a named target and a result. In the full data, 403 (1.9%) are marked active. 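Unnormalised raw counts per well; ratio z-scores behind the hit calls and whether each hit raises or lowers signal are not deposited.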 Not stated in the record: the amount of reagent.

predicted target | DRSC id | induced reporter light, run 1, well a | induced reporter light, run 1, well b | control promoter light, run 1, well a | control promoter light, run 1, well b | uninduced reporter light, run 1, well a | Outcome
MED22 (Mediator complex subunit 22) | DRSC18175 | 96670 | 1.03e5 | 1.40e5 | 1.54e5 | 8140 | inactive
Trxr2 (Thioredoxin reductase 2) | DRSC11900 | 1.49e5 | 1.26e5 | 1.20e5 | 1.22e5 | 12795 | inactive
Ykt6 (YKT6 v-SNARE) | DRSC17970 | 1.57e5 | 1.76e5 | 2.37e5 | 1.87e5 | 12050 | inactive
Ugt35C1 (UDP-glycosyltransferase family 35 member C1) | DRSC16080 | 14525 | 11720 | 17240 | 14910 | 725 | inactive
DCTN1-p150 (Dynactin 1, p150 subunit) | DRSC11175 | 1.18e5 | 1.32e5 | 1.05e5 | 94820 | 10930 | inactive
pds5 | DRSC06670 | 1.68e5 | 1.58e5 | 2.02e5 | 2.15e5 | 11825 | inactive
CG1663 | DRSC06613 | 1.49e5 | 1.56e5 | 1.60e5 | 1.52e5 | 13545 | inactive
Erk7 (Extracellularly regulated kinase 7) | DRSC18127 | 1.14e5 | 1.16e5 | 2.04e5 | 1.66e5 | 8092 | inactive
Erk7 (Extracellularly regulated kinase 7) | DRSC18227 | 1.11e5 | 1.00e5 | 2.14e5 | 1.89e5 | 7570 | inactive
CG4461 | DRSC10423 | 1.15e5 | 1.06e5 | 1.47e5 | 1.26e5 | 7175 | inactive
E(spl)m6-BFM (Enhancer of split m6, Bearded family member) | DRSC16993 | 1.65e5 | 1.91e5 | 2.37e5 | 2.03e5 | 13895 | inactive
ATbp ((A+T)-stretch binding protein) | DRSC20906 | 47505 | 66630 | 52185 | 58575 | 9555 | inactive
CG9135 | DRSC03144 | 1.55e5 | 1.90e5 | 1.68e5 | 1.98e5 | 16405 | inactive
mora (morgana) | DRSC16594 | 1.70e5 | 1.59e5 | 2.01e5 | 1.99e5 | 13150 | inactive
CG15011 | DRSC08464 | 1.58e5 | 1.45e5 | 1.06e5 | 54700 | 13100 | inactive
CG4613 | DRSC10435 | 1.96e5 | 1.31e5 | 2.46e5 | 2.33e5 | 9175 | inactive
CR31032 (pseudo) | DRSC22457 | – | – | – | – | – | inactive
CG4230 | DRSC02740 | 1.46e5 | 1.59e5 | 1.51e5 | 1.72e5 | 14905 | inactive
casp (caspar) | DRSC07164 | 47940 | 60530 | 69920 | 73935 | 4535 | inactive
fln (flightin) | DRSC11346 | 1.10e5 | 1.14e5 | 53680 | 73250 | 7590 | inactive

As entered above.
CG4230 [DRSC02740], control promoter light, run 1, well a = 1.51e5
Result for Erk7 (Extracellularly regulated kinase 7) [DRSC18127] under “Outcome”: inactive
